Measured values from patent US20060276440A1, “Treatment of inflammatory disorders” (priority 2005, published 2006).

Tests used:
[1] = test system: MMP-13; experiment: IL-1/OSM-stimulated pro-MMP-13 production in SW-1353 cells (ELISA); assay type: cell-based; conditions: Homo sapiens; SW1353 cells; mean (Examples 8, 10); read-out: IC50 values by pro-MMP-13 (OSM/IL-1-mediated production)
From the text: To test the compounds identified in the preliminary reporter (luciferase) activity […]® line 4A1 screen for inhibition of OSM signaling in a more physiologically relevant environment, a human cell line involved in an inflammatory disease was adapted. The human cartilage cell line SW-1353 was selected.
In the human cartilage cell line SW-1353, while IL-1 is believed to activate expression of collagenases to a small degree and OSM is believed to have no effect on collagenase expression, a combination of IL-1 and OSM is believed to lead to a synergistic activation of collagenases to much higher levels (S. Cowell et al., Biochem J 331 (Pt 2), 453 (Apr. 15, 1998). Regulation of MMP-13 in SW-1353 cells is, therefore, believed to provide a biomarker which can be used to monitor IL-1/OSM-mediated signal transduction events in secondary assays. […]
For matrix metalloproteinase (MMP) measures, SW1353 cells were grown to confluence in 24 well plates, washed in DMEM (with Ham's F12) and placed in 500 ul of serum free DMEM/F-12 with 0.2% lactalbumin hydrosylate with and without OsM/IL-1. After 24 hrs, supernatants were collected and the amounts of proMMP13, totalMMP2, and proMMP1 were measured using Quantikine® ELISA kit for human MMPs (R & D systems, Minneapolis, Minn.). […]

[2] = test system: OSM signaling; experiment: […] 4A1 cell line (A549) OSM-stimulated luciferase reporter assay; assay type: cell-based; conditions: Homo sapiens, 4A1 cells, mean (Examples 7, 10)
Experimental: Cell line 4A1 was established in A549 cells (a human lung cancer cell line) using BV32, a vector that carries both the luciferase and GFP reporters. Assay development was performed to optimize the conditions of the OSM-response in the 4A1 […]® line.
Reporter activities of Sentinel® clones were measured using the Steady-Glo® Luciferase assay system (Promega, Madison, Wis.), according to the manufacturer's instructions, and were normalized to cell numbers based on nucleic acid quantification (CyQuant® cell proliferations assay, Molecular Probes/Invitrogen, Carlsbad, Calif.). In order to identify potential anti-inflammatory compounds, the OSM-responding Sentinel® clone 4A1 was used for a library screen of approximately 1800 compounds.

Which IC50 [1] does the source give for COc1cc2c(c(OC)c1OC)-c1ccc(OC)c(=O)cc1[C@@H](NC(C)=O)CC2 (atropisomer, axis not shown) [Colchicine (4), colchicine] here?
Its IC50 is 295 nM.

And the IC50 [2]?
The IC50 was 260 nM.
